Experiment [1] has as its target T1, 3xFLAG-Vaspin (visceral adipose tissue-derived serine protease inhibitor, SERPINA12), expressed in HK2 cells (human) (UniProt Q8IW75).
T1 sequence: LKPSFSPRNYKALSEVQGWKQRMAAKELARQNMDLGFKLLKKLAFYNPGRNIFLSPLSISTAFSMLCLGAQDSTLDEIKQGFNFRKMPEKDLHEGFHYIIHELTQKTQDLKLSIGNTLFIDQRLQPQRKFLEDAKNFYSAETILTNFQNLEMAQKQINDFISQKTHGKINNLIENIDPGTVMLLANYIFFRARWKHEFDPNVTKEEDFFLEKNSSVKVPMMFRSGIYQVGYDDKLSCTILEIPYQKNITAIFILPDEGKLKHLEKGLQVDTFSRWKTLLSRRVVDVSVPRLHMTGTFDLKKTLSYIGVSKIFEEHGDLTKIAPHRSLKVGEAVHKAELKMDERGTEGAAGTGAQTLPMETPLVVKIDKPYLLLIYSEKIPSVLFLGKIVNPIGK
Put plainly: co-IP; HK2 cells expressing p3xFLAG-Vaspin, treated with 1 ug/ml tunicamycin or 1 uM thapsigargin; lysate precipitated with ANTI-FLAG M2 affinity agarose gel, blot for GRP78.

Amino acid sequences for entries named in this document (tags omitted). Residues count along the entry.
UniProt P34931: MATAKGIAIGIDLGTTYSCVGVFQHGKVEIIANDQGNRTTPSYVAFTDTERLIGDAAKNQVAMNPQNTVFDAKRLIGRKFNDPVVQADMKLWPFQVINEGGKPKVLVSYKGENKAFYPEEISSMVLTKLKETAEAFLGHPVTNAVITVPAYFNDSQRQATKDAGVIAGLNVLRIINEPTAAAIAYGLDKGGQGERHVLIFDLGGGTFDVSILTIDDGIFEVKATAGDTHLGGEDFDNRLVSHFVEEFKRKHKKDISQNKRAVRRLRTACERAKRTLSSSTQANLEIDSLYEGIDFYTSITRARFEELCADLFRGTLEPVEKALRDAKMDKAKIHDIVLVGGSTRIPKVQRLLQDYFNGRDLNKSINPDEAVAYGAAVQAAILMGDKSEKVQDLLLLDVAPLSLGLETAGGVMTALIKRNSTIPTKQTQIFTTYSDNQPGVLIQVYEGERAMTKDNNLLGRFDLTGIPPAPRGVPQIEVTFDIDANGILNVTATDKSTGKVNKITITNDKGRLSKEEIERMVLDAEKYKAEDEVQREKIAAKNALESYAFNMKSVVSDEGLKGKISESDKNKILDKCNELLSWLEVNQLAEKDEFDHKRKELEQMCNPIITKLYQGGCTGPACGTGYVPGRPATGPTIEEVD
UniProt P11021, residues 19-654: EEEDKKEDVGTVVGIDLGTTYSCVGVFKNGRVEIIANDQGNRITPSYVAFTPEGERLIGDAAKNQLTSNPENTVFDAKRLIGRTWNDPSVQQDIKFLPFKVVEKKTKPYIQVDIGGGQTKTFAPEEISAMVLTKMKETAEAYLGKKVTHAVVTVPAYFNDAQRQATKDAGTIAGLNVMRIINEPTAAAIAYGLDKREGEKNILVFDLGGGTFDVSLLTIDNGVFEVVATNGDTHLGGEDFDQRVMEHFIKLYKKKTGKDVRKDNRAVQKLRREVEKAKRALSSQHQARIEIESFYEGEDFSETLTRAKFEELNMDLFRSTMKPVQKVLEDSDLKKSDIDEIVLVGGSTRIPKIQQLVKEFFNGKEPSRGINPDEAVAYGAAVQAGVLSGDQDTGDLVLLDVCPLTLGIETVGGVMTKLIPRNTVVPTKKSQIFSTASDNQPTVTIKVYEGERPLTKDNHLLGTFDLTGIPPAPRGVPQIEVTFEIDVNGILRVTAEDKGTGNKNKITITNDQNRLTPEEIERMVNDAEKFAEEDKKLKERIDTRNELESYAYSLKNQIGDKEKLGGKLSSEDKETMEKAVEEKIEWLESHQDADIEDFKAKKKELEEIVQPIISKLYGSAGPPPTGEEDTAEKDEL
UniProt P16627: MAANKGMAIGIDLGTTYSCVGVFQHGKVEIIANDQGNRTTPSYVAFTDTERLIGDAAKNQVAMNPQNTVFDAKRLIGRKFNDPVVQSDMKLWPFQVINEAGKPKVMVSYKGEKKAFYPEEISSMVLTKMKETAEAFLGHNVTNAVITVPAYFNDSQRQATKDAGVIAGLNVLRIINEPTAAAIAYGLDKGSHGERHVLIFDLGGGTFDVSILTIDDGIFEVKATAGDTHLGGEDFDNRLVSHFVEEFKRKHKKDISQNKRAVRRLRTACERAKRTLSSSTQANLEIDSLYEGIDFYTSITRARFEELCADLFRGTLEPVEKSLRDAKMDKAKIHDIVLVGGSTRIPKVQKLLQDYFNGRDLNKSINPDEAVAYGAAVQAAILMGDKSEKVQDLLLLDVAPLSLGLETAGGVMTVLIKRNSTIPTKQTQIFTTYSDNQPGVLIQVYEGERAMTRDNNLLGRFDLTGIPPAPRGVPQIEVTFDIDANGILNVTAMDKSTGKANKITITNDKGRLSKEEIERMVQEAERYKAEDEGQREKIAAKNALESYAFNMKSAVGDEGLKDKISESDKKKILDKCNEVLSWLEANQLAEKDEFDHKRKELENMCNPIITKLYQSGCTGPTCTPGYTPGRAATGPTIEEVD

The target of experiment [2] is T2, 3xFLAG-Vaspin (visceral adipose tissue-derived serine protease inhibitor, SERPINA12), expressed in HEK293T cells (human) (UniProt Q8IW75).
T2 sequence: T1 sequence
Briefly: co-IP; HEK293T cells expressing p3xFLAG-Vaspin (alone or with pGFP-GRP78 or pGFP-HSPA1L); lysates precleared with sepharose 4B, precipitated with ANTI-FLAG M2 affinity agarose gel, Western blot. A general note: Immunoblotting shows a protein as a band on a membrane.

The target of experiment [3] is T3, recombinant human vaspin protein (human) (UniProt Q8IW75).
T3 sequence: T1 sequence
Briefly: co-IP; kidney lysates of mice injected with rhVaspin, immunoprecipitated with vaspin antibody, SDS-PAGE, detection with HSPA1L antibody; only the target purified.

The target of experiment [4] is 3xFLAG-GFP-HSPA1L, expressed in HK2 cells (UniProt P34931). Briefly: co-IP; HK2 cells expressing p3xFLAG-GFP-HSPA1L cultured with rhVaspin; lysates precipitated with ANTI-FLAG M2 affinity agarose gel, blot with anti-Vaspin antibody; only the binder purified.

Results are given in words; binding and its absence hold for the method and conditions named. In cells and extracts the contact can be indirect. Some results given as binding are weak or reduced against the parent protein; the word gives no strength. For part of these data: Tags and fused reporters may be left off the sequences shown.

Consider “78 kDa glucose-regulated protein (GRP78), endogenous in HK2 cells (from UniProt P11021 19-654)”, for which the binding result in experiment [1] is on record as “binds”.

For the molecule “GFP-GRP78 (19-654), expressed in HEK293T cells (from UniProt P11021 19-654)”, the binding entry in experiment [2] is “binds”.

For the molecule “GFP-HSPA1L, expressed in HEK293T cells (from UniProt P34931 1-641)”, the binding entry in experiment [2] is listed as “binds”.

In the case of “HSPA1L, endogenous in mouse kidney (from UniProt P16627 1-641)”, in experiment [3], the binding entry is “binds”.

Regarding “heat shock protein family A (Hsp70) member 1 like (HSPA1L), endogenous in HEK293T cells (from UniProt P34931 1-641)”, the binding result in experiment [2] is on record as “binds”.

B1: recombinant human vaspin protein (protein, UniProt Q8IW75 21-414)
chain: T1 sequence
As for B1, the binding result in experiment [4] is on record as “binds”.

The values are drawn from PMC7979793.
